Some results were stated once for a whole list of compounds, not compound by compound.
Tested on: clinical isolates of T. rubrum (14-01, 14-02, 14-03, 13-04)
Experiment: Inhibition of growth of clinical isolates of T. rubrum (FIG. 2)
Assay type: cell-based, Trichophyton rubrum
Conditions: isolates 14-01, 14-02, 14-03, 13-04; growth at 72 hours
Method: (§1) FIG. 2(A) is a graphical representations showing the effect of the plant defensins NaD1 (dashed line) and HXL008 (solid line) on the growth of clinical isolate 14-01 of Trichophyton rubrum in vitro. Fungal growth was measured by the increase in optical density at 595 nm (A595) achieved 72 hours after inoculation of the growth medium and is plotted as a percentage of growth relative to a no-protein control (vertical axis) versus protein concentration (μg/mL, horizontal axis).
as §1, with “2(B)” for “2(A)”, “representation” for “representations”, “14-02” for “14-01”, “axis). […]” for “axis).”
Antifungal assays are conducted in 96 well microtitre plates essentially as herein described. […] Fungal growth is assayed by measuring optical density at 595 nm (A595) using a microtitre plate reader (SpectraMax Pro M2; Molecular Devices. Growth is allowed to proceed until the optical density (OD) of the fungus in the absence of any test defensin reached an OD of 0.2. Each test is performed in duplicate.

Row | Substance | IC50 against four clinical isolates of T. rubrum
1 | HXL008: Class I plant defensin from Picramnia pentandra (KVCTKPSKFFKGLCGTDGACTTACRKEGLHSGYCQLKGFLNSVCVCRKHC; HXL008 Picramnia pentandra) | below 20 μg/mL
2 | NaD1: Solanaceous Class II plant defensin from Nicotiana alata (RECKTESNTFPGICITKPPCRKACISEKFTDGHCSKILRRCLCTKPC; NaD1 Nicotiana alata) | below 20 μg/mL
